Experimental data from PMC11904109.
No constants are given. Whether binding was seen depends on the method and setting. In cells and extracts the contact can be indirect. Some results given as binding are weak or reduced against the parent protein; the word gives no strength. Where a sequence is shown, tags or fusion partners need not be part of it.

Target: rabbit MKRN3 (makorin ring finger protein 3), intact, fused with GFP-N173 or GFP-C155 for BiFC (rabbit) (UniProt G1T456)
Assay: split reporter; BiFC: MKRN3 fused with GFP-N173 and with GFP-C155, plasmid pairs transfected 1:1 into HEK-293T cells, green fluorescence observed 48 h after transfection

binding: binds
B1: rabbit MKRN3 (makorin ring finger protein 3), intact, fused with GFP-N173 or GFP-C155 for BiFC (protein, UniProt G1T456 1-515)
chain: MEEPAAPSGAQEASGAQAGAEAAGEGASGPSLPECETSGESVAPDTAPARAALGLVPLRVAPSPAHLRMVGLRHVQAARGGARPSHLPSRSTGSWTKQVVCRYYLHGLCKEGENCRYSHDLSGRQVAREGHGAPPRASADRGPSMAAPSQPPTQEVAEAAPAASSSSLPLIGSAAERGRFEAELECAGQGAVGGSGVEGWEEAVEFVPGQPYRGRRVASVPEAPLQSSVTEREQMAVGMGQQMAVGMGMQLCPHAARGQCFRGESCMYLHGEICDMCGLQALHPLDAAQRADHRKACVEAHEKDMELSFAVQRSMDKVCGICMEVVYDKVNPSDRRFGILSNCNHPFCLKCIRRWRRARHFENRIVKSCPQCRVTSNFVIPSEFWVEEEEEKQRLIQQYKEALSNKPCRYFAEGRGHCPFGEHCFYKHSYPEGQGEEPQGRGGGPSAAYWHQLSQPVQLGEGSLLFKSSKKELVTLRLASLLFKRFLSLRNEFPFSEEQWDLLHYQLEEYFNLNL
